In publication PMC4712133 one finds binding data, which are given here for two molecules.

Sequences of proteins named here, by UniProt entry; tags and fusion partners are left off. Residues count along the entry.
UniProt P10451, residues 17-314: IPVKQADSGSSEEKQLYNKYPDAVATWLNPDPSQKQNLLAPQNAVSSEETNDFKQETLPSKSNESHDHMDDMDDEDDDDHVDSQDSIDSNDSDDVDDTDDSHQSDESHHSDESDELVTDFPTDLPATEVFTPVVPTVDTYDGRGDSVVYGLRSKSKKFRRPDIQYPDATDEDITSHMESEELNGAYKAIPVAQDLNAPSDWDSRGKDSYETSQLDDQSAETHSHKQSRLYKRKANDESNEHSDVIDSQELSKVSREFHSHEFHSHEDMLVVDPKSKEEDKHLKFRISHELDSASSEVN

The assay concerns the target osteopontin (OPN), recombinant human (human) (UniProt P10451). In words: SPR; BIAcore X-100; human OPN immobilised on a CM5 chip by amine coupling; AMPs injected at 31.25-500 nM in 10 mM HEPES pH 7.5, 150 mM NaCl, 0.005% surfactant P20, 3.4 mM EDTA, 30 ul/min; 1:1 binding model with drifting baseline; both purified. A general note: Surface plasmon resonance follows binding to a sensor surface in real time, without labels.

These are yes or no findings as the source states them, for the method shown. Some binding calls cover weakened binding; strength is not graded here.

B1: midkine (protein, UniProt P21741 21-143)
chain: VAKKKDKVKKGGPGSECAEWAWGPCTPSSKDCGVGFREGTCGAQTQRIRCRVPCNWKKEFGADCKYKFENWGACDGGTGTKVRQGTLKKARYNAQCQETIRVTKPCTPKTKAKAKAKKGKGKD
Turning to B1, the binding result is given as “binds”.

GIINTLQKYYCRVRGGRCAVLSCLPKEEQIGKCSTRGRKCCRRKK (peptide, UniProt P81534 23-67) [human beta defensin-3 (hBD-3)]: the binding entry is listed as “binds”.
